A short description of series [1]: Maillard reaction products with glucose, optical density at 400 nm. To be noted: 50° C., 18 h; for OD 400 nm of Maillard reaction products: with glucose 250 mg/ml, compound 500 mM.
Series [2] can be described thus: Maillard reaction products with sorbitol (non-reducing sugar), optical density at 400 nm. To be noted: with sorbitol 250 mg/ml, compound 500 mM, 50° C., 18 h.
The nature of series [3]: Glycation of peptides and amino acid analogues by DHA, loss of free amino group by HPLC. To be noted: part A: compound alone, DHA in PBS, 5 hours, 60° C.

Each structure is given as a SMILES string.

As for `CC(N)C(=O)O` (racemic) [D, L-alanine], the “OD 400 nm of Maillard reaction products” value in series [1] was determined as 0.266; in series [2], 0.008. For the molecule `CNC(=O)[C@H](CCCCN)NC(C)=O` [AC-Lys-NH2 Me, Ac-Lys-NHMe], the “% reacted (amino groups reacted with DHA)” value (“% reacted” below) in series [3] was 21%. Still for that read-out and setting: for `CC(=O)N[C@@H](CCCCN)C(=O)N[C@@H](Cc1c[nH]cn1)C(N)=O` [Ac-Lys-His-NH2] the value was 25%; for `NCCC(=O)N[C@H](Cc1c[nH]cn1)C(=O)O` [Beta-Ala-D-His-OH, beta-alanyl-D-histidine], 26%; for `NCCC(=O)NCC(=O)O` [Beta-Ala-Gly-OH, beta-alanyl-glycine], 2%. The same measure, in the same setting: the same measure for `NCCCC(=O)N[C@@H](Cc1c[nH]cn1)C(=O)O` [Gamma-aminobutyryl-His-OH, gamma-amino-butyryl-L-histidine]: 15%. `N=C(N)NCCC[C@H](N)C(=O)O` [L-arginine]: the “OD 400 nm of Maillard reaction products” value in series [1] is 0.469; in series [2] it was 0.010.

As to `NCCCC[C@H](N)C(=O)O` [L-lysine], the “OD 400 nm of Maillard reaction products” value in series [1] is 170; in series [2] it was 0.009. For the same molecule, in series [3], the “% reacted” value turned out to be 17%. Turning to `NCCCC[C@H](NC(=O)OCc1ccccc1)C(=O)O` [Z-Lys-OH, N-alpha-carbobenzox-yl-lysine], in series [3], the “% reacted” value came to 3%.

As to `NCCC(=O)O` [beta-alanine], the entries for the “OD 400 nm of Maillard reaction products” value in series [1] and in series [2] were 1.240 and 0.010, respectively. With `NCCC(=O)N[C@@H](Cc1c[nH]cn1)C(=O)O` [carnosine, β-alanyl-L-histidine], in series [1] (compound + PBS, no sugar), the “OD 400 nm” value was determined as 0.041. Besides, in series [1] (glucose), the “Maillard reaction product formed relative to L-lysine” value is “approximately 2 times” and the “Maillard reaction product formed relative to beta-alanine” value is on record as about 8 times. The “OD 400 nm of Maillard reaction products” value in series [1] is 8.455. In series [2], the “OD 400 nm of Maillard reaction products” value is listed as 0.209. In addition, in series [3], the “% reacted” value turned out to be 26%.

With `c1c[nH]cn1` [imidazole], the “OD 400 nm of Maillard reaction products” value was determined as 0.046 in series [1] and 0.035 in series [2].

The values are drawn from patent publication US5561110A, “Method for the treatment of the complications and pathology of diabetes” (Peptide Technology Limited, priority 1994, dated 1996).
